Measured values taken from paper PMC7141649.

By UniProt entry, the sequences of proteins in these tests, tags left out. Where a name states a change or a piece, a line headed by the entry shows the natural chain unless it says otherwise.
UniProt A0A0K0YB17: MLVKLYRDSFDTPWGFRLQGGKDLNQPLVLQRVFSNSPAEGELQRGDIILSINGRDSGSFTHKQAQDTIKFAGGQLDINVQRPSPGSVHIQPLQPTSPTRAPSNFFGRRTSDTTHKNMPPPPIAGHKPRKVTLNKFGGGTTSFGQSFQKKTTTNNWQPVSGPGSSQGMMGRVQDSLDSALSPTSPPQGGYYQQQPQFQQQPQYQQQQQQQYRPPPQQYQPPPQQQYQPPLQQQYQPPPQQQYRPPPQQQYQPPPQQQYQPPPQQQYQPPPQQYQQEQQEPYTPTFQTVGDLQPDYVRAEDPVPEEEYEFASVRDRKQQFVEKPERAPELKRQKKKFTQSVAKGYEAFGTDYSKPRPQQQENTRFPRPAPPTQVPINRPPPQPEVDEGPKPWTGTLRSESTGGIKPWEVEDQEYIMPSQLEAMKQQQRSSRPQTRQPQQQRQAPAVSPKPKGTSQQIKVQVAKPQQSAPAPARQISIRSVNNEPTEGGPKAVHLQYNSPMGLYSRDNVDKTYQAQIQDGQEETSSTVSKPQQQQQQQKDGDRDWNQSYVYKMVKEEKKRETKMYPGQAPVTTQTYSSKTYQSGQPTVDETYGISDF
UniProt A0A0K0YB05: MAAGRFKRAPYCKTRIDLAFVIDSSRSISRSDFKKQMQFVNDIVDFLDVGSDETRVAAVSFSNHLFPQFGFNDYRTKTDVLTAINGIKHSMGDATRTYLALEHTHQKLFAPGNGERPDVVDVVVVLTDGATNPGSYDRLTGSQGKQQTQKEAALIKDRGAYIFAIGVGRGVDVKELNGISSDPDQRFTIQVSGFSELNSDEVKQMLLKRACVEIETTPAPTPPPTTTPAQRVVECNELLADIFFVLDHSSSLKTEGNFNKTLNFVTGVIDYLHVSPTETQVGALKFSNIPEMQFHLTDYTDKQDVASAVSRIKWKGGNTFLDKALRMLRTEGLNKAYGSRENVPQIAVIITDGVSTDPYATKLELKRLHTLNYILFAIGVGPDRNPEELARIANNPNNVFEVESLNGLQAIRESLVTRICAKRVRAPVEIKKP
UniProt A0A0K0YAZ6: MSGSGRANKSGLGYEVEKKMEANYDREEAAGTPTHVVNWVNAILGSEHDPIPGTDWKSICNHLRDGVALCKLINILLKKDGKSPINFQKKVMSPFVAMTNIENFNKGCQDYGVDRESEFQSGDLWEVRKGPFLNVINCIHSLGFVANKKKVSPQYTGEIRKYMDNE

target: recombinant whirlin-like protein with His6 tag (bait of the pull-down) (Mytilus coruscus); assay: affinity purification with mass spectrometry; rWLP with His6 tag bound to Ni-NTA beads as bait; washed with 20 mM Tris-HCl, 150 mM NaCl, 10 mM imidazole, pH 8.0; incubated with total proteins extracted from the shell of M. coruscus for 4 h at 4°C; eluted with 300 mM NaCl, 300 mM imidazole; LC-MS/MS after trypsin; FDR <1%; only the target purified

binding, binds:
PDZ domain-containing protein-1 [Mytilus coruscus] (from UniProt A0A0K0YB17)
collagen-like protein-2 [Mytilus coruscus] (from UniProt A0A0K0YB05)
transgelin-like protein-3 [Mytilus coruscus] (from UniProt A0A0K0YAZ6)

Results are given in words; binding and its absence hold for the method and conditions named. Binding seen in cells or lysates may run through a third protein. Here binding means that the protein was enriched with, or labelled near, the bait; the list need not be complete.
